The list does not hold the whole screen: it is rich in T/C values a quarter to a half above the control, in often repeated tests (any T/C) and in doses without a T/C. Other doses and runs of a compound stand elsewhere. T/C gives the treated animals as a percentage of the vehicle group. Some entries give survivors of the animals treated and no T/C: the source holds a T/C of zero for them, seemingly a mark for toxic or unscored doses. Some survivor counts are full or nearly so, which does not show that the dose was tolerated: survival well below the control is almost never listed, so the zero probably covers shortened survival too. Counts of survivors are from the toxicity check (mostly the fifth day) where no day follows; animals may have died later. Schedule codes are those of the source, taken here to give the interval after Q, in days (D) or hours (H), and the number of doses after X. For survival time, this PubChem deposit counts one and a half times the control or more as active, and values a quarter to a half above the control carry no call in these data; other NCI protocols may use other cut-offs. Some entries hold several experiments; the values are given in rising order. Some T/C values carry the count of animals alive at the toxicity check (mostly the fifth day); without a count, all were alive then.

The test system of this experiment is CD2F1 mice, L1210 leukemia ip, survival T/C. The experiment in a line: NCI In Vivo Anticancer Drug Screen. Data for tumor model L1210 Leukemia (intraperitoneal) in CD2F1 (CDF1) mice. The note with it: higher T/C = longer survival. The method, boiled down: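 Transplantable tumor in mice; compound-treated vs vehicle-treated groups. Read-out = treated/control ratio of the measured endpoint.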

[1] abbreviates: T/C endpoint: mean survival time, dose: 200.0 mg/kg/injection, schedule: Q04DX003 (ip), vehicle: saline with Tween-80.
Setting [2] is: T/C endpoint: mean survival time, dose: 400.0 mg/kg/injection, schedule: Q04DX003 (ip), vehicle: saline with Tween-80.
Where [3] appears, read: T/C endpoint: mean survival time, dose: 100.0 mg/kg/injection, schedule: Q04DX003 (ip), vehicle: saline with Tween-80.
Setting [4] is: T/C endpoint: mean survival time, dose: 12.5 mg/kg/injection, schedule: Q01DX009 (ip), vehicle: saline with Tween-80.
Setting [5] is: T/C endpoint: mean survival time, dose: 25.0 mg/kg/injection, schedule: Q01DX009 (ip), vehicle: saline with Tween-80.
Where [6] appears, read: T/C endpoint: mean survival time, dose: 50.0 mg/kg/injection, schedule: Q01DX009 (ip), vehicle: saline with Tween-80.

Consider `C[n+]1ccc(Nc2ccc(NC(=O)c3ccc(Nc4cc[n+](C)c5ccc([N+](=O)[O-])cc45)cc3[N+](=O)[O-])cc2)cc1`, for which the T/C (T/C endpoint: mean survival time, dose: 118.0 mg/kg/injection, schedule: Q04DX003 (ip), vehicle: saline with Tween-80) was 131 % of control; the T/C (T/C endpoint: mean survival time, dose: 178.0 mg/kg/injection, schedule: Q04DX003 (ip), vehicle: saline with Tween-80) is 148 % of control; the T/C under setting [1] was 131 % of control; the T/C under setting [2] was 135 and 140 % of control. Further, the survivor count is, setting by setting: under setting [2], 5 of 6; (T/C endpoint: mean survival time, dose: 600.0 mg/kg/injection, schedule: Q04DX003 (ip), vehicle: saline with Tween-80) 2 of 6.
Regarding `O=c1ccccn1CCc1ccccc1`, the survivor count runs as follows: under setting [3], 4 of 6; under setting [1], 0 of 6; under setting [2], 0 of 6.
For the compound `CCC(C)(C)c1ccc(O)cc1`, under setting [2], the survivor count is reported as 6 of 6.
For the compound `CC(C)(C)C(=O)O`, the survivor count (T/C endpoint: mean survival time, dose: 400.0 mg/kg/injection, schedule: Q01DX009 (ip), vehicle: saline) is reported as 0 of 6.
As to `CO[C](=O)[Hg][c]1ccc(N=Cc2ccc(N(C)C)cc2Cl)cc1`, the survivor count under setting [4] was 3 of 6; the survivor count under setting [5] is 1 of 6; the survivor count under setting [6] was 0 of 6; the survivor count (T/C endpoint: mean survival time, dose: 100.0 mg/kg/injection, schedule: Q01DX009 (ip), vehicle: saline with Tween-80) was 0 of 6; the survivor count (T/C endpoint: mean survival time, dose: 200.0 mg/kg/injection, schedule: Q01DX009 (ip), vehicle: saline with Tween-80) is listed as 0 of 6; the survivor count (T/C endpoint: mean survival time, dose: 400.0 mg/kg/injection, schedule: Q01DX009 (ip), vehicle: saline with Tween-80) is 0 of 6.
For `O=C(Nc1cccc(F)c1)c1c(O)[nH]c(=S)[nH]c1=O`, the T/C (T/C endpoint: median survival time, dose: 100.0 mg/kg/injection, schedule: Q01DX009 (ip), vehicle: saline with Tween-80) was 128 % of control. Besides, under “T/C endpoint: median survival time, dose: 200.0 mg/kg/injection, schedule: Q01DX009 (ip), vehicle: saline with Tween-80”, the survivor count is recorded as 3 of 5.
In the case of `COC1CC2C[CH]([Hg][Cl])C1C2` (stereo unspecified), the survivor count reads like this: under setting [4], 0 of 3; under setting [5], 0 of 3; under setting [6], 0 of 3.
Turning to `C=CCc1cccc(OC)c1OCCN(CC)CC`, the survivor count by setting is: under setting [3], 0 of 6; under setting [1], 0 of 6; under setting [2], 0 of 6.
Turning to `O=C1C=CC(=NCl)C=C1`, where the note is “T/C endpoint: mean survival time, dose: 10.0 mg/kg/injection, schedule: Q04DX003 (ip), vehicle: saline with Tween-80”, the survivor count is given as 0 of 6.
Regarding `O=C(NO)c1cc(O)c(O)c(O)c1`, the T/C was 127 % of control (T/C endpoint: mean survival time, dose: 50.0 mg/kg/injection, schedule: Q01DX009 (ip), vehicle: distilled water + Tween-80); 129 % of control [5 of 6 alive] (T/C endpoint: mean survival time, dose: 50.0 mg/kg/injection, schedule: Q01DX009 (ip), vehicle: water); 139 % of control (T/C endpoint: mean survival time, dose: 100.0 mg/kg/injection, schedule: Q01DX009 (ip), vehicle: distilled water + Tween-80); 128 % of control (T/C endpoint: median survival time, dose: 25.0 mg/kg/injection, schedule: Q01DX009 (ip), vehicle: distilled water + Tween-80); 132 % of control (T/C endpoint: median survival time, dose: 50.0 mg/kg/injection, schedule: Q01DX009 (ip), vehicle: distilled water + Tween-80); 140 [9 of 10 alive] and 146 % of control (T/C endpoint: median survival time, dose: 100.0 mg/kg/injection, schedule: Q01DX009 (ip), vehicle: distilled water + Tween-80). In addition, the survivor count (T/C endpoint: median survival time, dose: 400.0 mg/kg/injection, schedule: Q01DX009 (ip), vehicle: distilled water + Tween-80) is reported as 7 of 10.
For `COc1ccc(NC(=O)Oc2cccnc2)c(Cl)c1`, the survivor count (T/C endpoint: mean survival time, dose: 200.0 mg/kg/injection, schedule: Q01DX009 (ip), vehicle: Klucel (hydroxypropylcellulose) (HPC)) was 0 of 3.
Regarding `CCCC(=O)NNC(=O)c1ccccn1`, the survivor count (T/C endpoint: mean survival time, dose: 200.0 mg/kg/injection, schedule: Q01DX009 (ip), vehicle: saline sonified) was 6 of 6 and the survivor count (T/C endpoint: mean survival time, dose: 400.0 mg/kg/injection, schedule: Q01DX009 (ip), vehicle: saline sonified) is reported as 1 of 6.
